Source: publication PMC8004850, “The Histidine Phosphocarrier Kinase/Phosphorylase from Bacillus Subtilis Is an Oligomer in Solution with a High Thermal Stability” (International Journal of Molecular Sciences, 2021)
No constants are given. Whether binding was seen depends on the method and setting. Sequences can lack the tags named with a protein.

Target: histidine phosphocarrier protein (HPr) kinase/phosphorylase of Bacillus subtilis (Bacillus subtilis) (UniProt O34483)
Assay: condition: only in pure water (pH 7.2-7.4), without buffer; 32 µM; dynamic light scattering (DLS); pure water (pH 7.2-7.4), 32 µM protein, 25 °C; MW from the Stokes-Einstein equation assuming a sphere; both purified

binding: no binding
B1: histidine phosphocarrier protein (HPr) kinase/phosphorylase of Bacillus subtilis (enzyme, UniProt O34483 1-310, looked up)
chain: MAKVRTKDVMEQFNLELISGEEGINRPITMSDLSRPGIEIAGYFTYYPRERVQLLGKTELSFFEQLPEEEKKQRMDSLCTDVTPAIILSRDMPIPQELIDASEKNGVPVLRSPLKTTRLSSRLTNFLESRLAPTTAIHGVLVDIYGVGVLITGKSGVGKSETALELVKRGHRLVADDCVEIRQEDQDTLVGNAPELIEHLLEIRGLGIINVMTLFGAGAVRSNKRITIVMNLELWEQGKQYDRLGLEEETMKIIDTEITKLTIPVRPGRNLAVIIEVAAMNFRLKRMGLNAAEQFTNKLADVIEDGEQEE
notes: HPr kinase/phosphorylase (HPrK/P) of Bacillus subtilis; theoretical molecular weight 36.6 kDa including the His-tag; Vector was a gift from Dr. A. Galinier; Oligomeric state depends on the buffer: monomer in pure water (DLS), mainly hexamer in 50 mM sodium phosphate pH 7.0; also called bsHPrK/P; HPrK/P; source: E. coli BL21 (DE3), purified (Ni-resin, Superdex 200 gel filtration), dialysed against …
